Experimental data taken from patent US20250263453A1.
Results are given in words; binding and its absence hold for the method and conditions named. Binding seen in cells or lysates may run through a third protein. Some results given as binding are weak or reduced against the parent protein; the word gives no strength.

Amino acid sequences for entries named in this document (tags omitted). Residues count along the entry.
UniProt P08670, residues 2-466: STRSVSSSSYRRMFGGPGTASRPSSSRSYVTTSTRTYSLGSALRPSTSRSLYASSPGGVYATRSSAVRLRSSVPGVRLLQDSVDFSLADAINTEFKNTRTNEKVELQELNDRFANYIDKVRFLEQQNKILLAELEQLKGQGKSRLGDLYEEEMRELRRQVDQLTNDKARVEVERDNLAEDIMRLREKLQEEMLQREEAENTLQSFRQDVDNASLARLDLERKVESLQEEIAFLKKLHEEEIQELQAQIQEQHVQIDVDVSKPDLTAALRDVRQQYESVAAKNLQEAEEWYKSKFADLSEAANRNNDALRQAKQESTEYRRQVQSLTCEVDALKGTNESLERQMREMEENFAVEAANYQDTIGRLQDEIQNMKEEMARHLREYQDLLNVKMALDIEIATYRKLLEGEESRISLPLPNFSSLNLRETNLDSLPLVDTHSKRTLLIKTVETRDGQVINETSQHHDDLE
UniProt P53350, residues 2-603: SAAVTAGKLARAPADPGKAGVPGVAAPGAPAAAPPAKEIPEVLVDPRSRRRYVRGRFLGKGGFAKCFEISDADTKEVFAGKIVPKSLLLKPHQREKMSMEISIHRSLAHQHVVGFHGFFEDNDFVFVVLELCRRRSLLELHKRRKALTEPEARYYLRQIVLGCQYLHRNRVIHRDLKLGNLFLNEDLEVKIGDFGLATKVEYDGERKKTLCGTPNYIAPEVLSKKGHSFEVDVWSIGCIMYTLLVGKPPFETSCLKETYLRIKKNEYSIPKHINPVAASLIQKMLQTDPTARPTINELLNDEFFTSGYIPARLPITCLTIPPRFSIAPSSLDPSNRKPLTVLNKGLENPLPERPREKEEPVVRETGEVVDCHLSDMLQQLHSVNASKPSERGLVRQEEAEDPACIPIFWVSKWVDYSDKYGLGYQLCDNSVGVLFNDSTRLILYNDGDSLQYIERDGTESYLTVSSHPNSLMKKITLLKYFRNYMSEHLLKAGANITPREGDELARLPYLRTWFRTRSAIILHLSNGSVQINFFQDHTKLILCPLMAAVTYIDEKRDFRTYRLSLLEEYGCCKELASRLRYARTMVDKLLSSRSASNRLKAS

Experiments:
vimentin (human) [1] = target: vimentin (human) (UniProt P08670); test: co-immunoprecipitation, TGF-β-treated lung cancer cells (summary of Example 2)
vimentin (human) [2] = target: vimentin (human) (UniProt P08670); test: co-immunoprecipitation with a PLK1 antibody, A549 cells treated with 2.5 ng/ml TGF-β
vimentin (human) [3] = target: vimentin (human) (UniProt P08670); test: co-immunoprecipitation with a PLK1 antibody, NCI-H460 cells treated with 2.5 ng/ml TGF-β
vimentin (human) [4] = target: vimentin (human) (UniProt P08670); test: co-immunoprecipitation with a PLK1 antibody and agarose beads, immunoblot; A549 and NCI-H460 cells with or without TGF-β

Measured: binding

PLK1 (polo-like kinase 1) (from UniProt P53350 2-603) (enzyme)
binds: vimentin (human) [1] | vimentin (human) [2] | vimentin (human) [3] | vimentin (human) [4]
